By AC50 is commonly meant the midpoint of the concentration-response curve, whichever way the signal moves.

The list shows a part of the results. Further columns of the screen follow, without active or inactive calls. Compounds called inactive in the main read-out are mostly missing here. Words in brackets tell the shape of the fitted curve; partial curves, single points and poor fits give uncertain potencies.

The values below come from PubChem BioAssay AID493014 (National Center for Advancing Translational Sciences (NCATS), 2011).

This assay can be described thus: qHTS Assay to Find Inhibitors of Chronic Active B-Cell Receptor Signaling. The following applies: ABC-DLBCL IkBa-CBG/CBR reporter, luminescence ratio (green luciferase fused to IkBa over red control in TMD8 lymphoma cells), 4 h. Put shortly: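 Cell line TMD8 (human ABC DLBCL), stably expressing tet-inducible CBG68-IkBa fusion and CBR; IMDM/0.5% FBS; cpd up to 46 uM; dox induction, 4 h, 37C/5% CO2; dual luminescence; green/red ratio; MG132 control.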

[1] abbreviates: measured here: CBR red luminescence, cell number.
The mark [2] stands for this setting: measured here: IkBa-CBG green luminescence.

`CCn1c(C)nc2cc(C(=O)NNC(=S)Nc3ccc(C)cc3)ccc21`: the AC50 under setting [1] is 10 µM [rising, partial curve, poor fit].
Still for that read-out and setting: the result for `Cc1[nH]n(-c2ccccc2)c(=O)c1N=Nc1c(O)cc(S(=O)(=O)N(C)C)c2ccccc12` reads 2.06 µM [falling, full curve].
As to `Cc1ccnc(Sc2ccc([N+](=O)[O-])cc2[N+](=O)[O-])n1`, the AC50 under setting [1] was 2.31 µM [falling, partial curve] and the AC50 under setting [2] was 14.6 µM [rising, partial curve, poor fit].
Regarding `O=C(NN1C(=O)c2cc(Br)ccc2NC1c1cc(Br)cc(Br)c1O)c1ccncc1` (stereo not drawn), the AC50 under setting [1] is 6.51 µM [falling, partial curve, poor fit].
`CCOc1ccc(OCC(=O)NCc2n[nH]c(=O)c3ccccc23)cc1`: the AC50 under setting [1] is 16.4 µM [falling, single point].
The same measure, in the same setting: the result for `CCn1nc(C(=O)O)c(=O)c2cc3c(cc21)OCO3` reads 0.1 µM [falling, full curve, poor fit]; that for `CC(C)C(=O)Nc1ccccc1Cc1ccccc1`, 22.4 µM [rising, single point]; that for `CCC(C)NC(=O)c1cc2cc3ccc(OC)cc3nc2s1` (stereo not drawn), 29.1 µM [falling, single point].
Still for that read-out and setting: in the case of `CN(C)c1nc(=S)nc(NCc2ccccc2)[nH]1` it was 35.5 µM [rising, single point].
Turning to `CC(C)c1ccc(CNc2ccc([N+](=O)[O-])cn2)cc1`, the AC50 under setting [1] is 35.5 µM [rising, single point].
Still for that read-out and setting: in the case of `COc1ccc(S(=O)(=O)Nc2ccc3c(c2)C(=O)N([C@H](C)CO)C[C@H](C)[C@@H](CN(C)C(=O)Nc2ccccc2)O3)cc1` it was 0.82 µM [rising, partial curve, poor fit].
On the same count and under the same terms, in the case of `COc1ccc(NC(=O)C/C(C)=N/NC(=O)c2cnccn2)cc1Cl` it was 10 µM [falling, partial curve]; in that of `CCN(CC)c1ccc(-c2n[nH]c(=S)n2-c2ccccc2C)cc1`, 35.5 µM [falling, single point]; in that of `CC1Cc2ccccc2N1C(=O)COC(=O)C1=COCCO1` (stereo not drawn), 6.31 µM [rising, single point].
Same read-out and setting: in the case of `CCc1cccc(OCC(=O)Nc2ccc(S(=O)(=O)Nc3onc(C)c3C)cc2)c1` it was 29.1 µM [falling, single point].
On to `CC(C)c1ccc(/C=C/C(=O)N2CCCCCC2)cc1`, for which the AC50 under setting [1] was 13 µM [rising, partial curve].
Still for that read-out and setting: the result for `Cc1nc2c(C)cccn2c(=O)c1NC(=O)c1cccs1` reads 2.06 µM [rising, partial curve, poor fit].
For the compound `CNS(=O)(=O)c1ccc(NCC2COc3ccccc3O2)c([N+](=O)[O-])c1` (stereo not drawn), the AC50 under setting [1] is 16.4 µM [rising, partial curve, poor fit].
On to `COc1ccc2c(OC)cc(=O)n(C)c2c1`, for which the AC50 under setting [1] is 23.1 µM [rising, single point] and the AC50 under setting [2] is 29.1 µM [falling, single point].
On to `O=C(c1cnccn1)N1CCc2c([nH]c3ccccc23)C1c1cccc(Cl)c1` (stereo not drawn), for which, under setting [1], the AC50 is 17.8 µM [falling, single point].
Same read-out and setting: the result for `O=C(Nc1ccc(-c2cn3ccccc3n2)cc1)c1ccco1` reads 14.6 µM [falling, single point]; that for `COc1ccc(C(=O)/C=C/Nc2ccc([N+](=O)[O-])cc2C)c(OC)c1`, 20.6 µM [rising, single point]; that for `COc1ccccc1C1(CCNC(C)c2cccs2)CCOC(C(C)C)C1` (stereo not drawn), 12.6 µM [falling, partial curve].
Consider `CCOC(=O)C1CCCN(C(=O)C2CCN(S(=O)(=O)c3cccs3)CC2)C1` (stereo not drawn), for which the AC50 under setting [1] is 1.84 µM [falling, single point].
The same measure, in the same setting: in the case of `Cc1ccc2nc3ccc(N4CCCC4)nn3c(=O)c2c1` it was 10 µM [falling, partial curve, poor fit]; in that of `Cc1ccsc1C1NC(=O)c2c(sc3c2CCCC3)N1` (stereo not drawn), 8.2 µM [falling, single point]; in that of `CCOc1ccc2nc(NC(=O)c3ccco3)sc2c1`, 7.94 µM [falling, partial curve].
For the compound `Cc1cccc(-n2c(C)cc(/C=N\NC(=O)c3cccs3)c2C)c1`, under setting [1], the AC50 is 20.6 µM [falling, single point].
On the same count and under the same terms, in the case of `COC(=O)/C=C/C(=O)Nc1cccnc1` it was 15.8 µM [falling, single point].
Same read-out and setting: the result for `CC(C)(C)c1csc(NNC(=O)c2ccc(Cl)cc2)n1` reads 31.6 µM [falling, single point]; that for `Cc1ccc(C)n1-c1cc([N+](=O)[O-])ccc1-n1ccnc1`, 35.5 µM [rising, single point]; that for `CN1CCC(=NNC(=O)CSCc2ccccc2)CC1`, 5.62 µM [falling, single point].
Still for that read-out and setting: in the case of `CC(C)n1cnc2c(NCc3ccc(S(N)(=O)=O)cc3)nc(NCc3ccc(S(N)(=O)=O)cc3)nc21` it was 0.316 µM [rising, partial curve, poor fit]; in that of `COc1cccc(OCC(O)CN2CCN(c3ccccc3)CC2)c1` (stereo not drawn), 2.51 µM [rising, partial curve, poor fit].
Regarding `CCOC(=O)c1c(C)[nH]c(C(=O)OCC(=O)N(C)c2c(N)n(Cc3ccccc3)c(=O)[nH]c2=O)c1C`, under setting [1], the AC50 was 18.4 µM [falling, single point].
Same read-out and setting: in the case of `COc1ccc(S(=O)(=O)N(C)C[C@H]2Oc3ccc(NC(=O)C4CC4)cc3C(=O)N([C@H](C)CO)C[C@@H]2C)cc1` it was 13 µM [rising, single point].
For `CCCCC(=O)Nc1ccc(C)c(O)c1`, under setting [1], the AC50 is 3.55 µM [rising, full curve, poor fit].
Same read-out and setting: the result for `CCCc1nc(SCC(=O)N2CCc3ccccc3C2)c2ccccc2n1` reads 10 µM [falling, partial curve]; that for `COC(=O)c1sccc1NC(=S)N(C)C1CCCCC1`, 35.5 µM [rising, partial curve, poor fit]; that for `S=C1N(c2ccccc2)CN(CCN2CCOCC2)CN1c1ccccc1`, 2 µM [rising, full curve, poor fit].
On the same count and under the same terms, in the case of `COc1cccc(N2CCN(C(=O)c3ccc4nc(N5CCC(C)CC5)sc4c3)CC2)c1` it was 3.98 µM [falling, partial curve, poor fit].
